Reference: publication PMC4132756
No constants are given. Whether binding was seen depends on the method and setting. Binding seen in cells or lysates may run through a third protein. For part of these data: Binding calls can cover weak binding; strength is not graded here.

Columns and labels:
[1] = molecular target: green fluorescent protein-p75 (GFP-p75), Psip1/p75; test: co-IP; GFP trap (ChromoTek, manufacturer's protocol) of GFP-p75 complexes from stably transduced WT MEFs, GFP cells as control; immunoblot of bound endogenous proteins; 5% input loaded
[2] = molecular target: HA-tagged Psip1 p75 (p75-HA); test: co-IP; anti-HA antibodies (or control IgG) on Protein A Dynabeads incubated 1 h with nuclear extracts (RIPA buffer with Benzonase) of cells with HA-tagged Psip1 isoforms; 4 washes in RIPA; immunoblot
[3] = molecular target: HA-tagged Psip1 p52 (p52-HA); test: as above

binding [1] | binding [2] | binding [3] | Binder
binds | binds | no binding | Bmi1 (protein, UniProt P25916 1-324) MHRTTRIKITELNPHLMCVLCGGYFIDATTIIECLHSFCKTCIVRYLETSKYCPICDVQVHKTRPLLNIRSDKTLQDIVYKLVPGLFKNEMKRRRDFYAAHPSADAANGSNEDRGEVADEEKRIITDDEIISLSIEFFDQSRLDRKVNKEKPKEEVNDKRYLRCPAAMTVMHLRKFLRSKMDIPNTFQIDVMYEEEPLKDYYTLMDIAYIYTWRRNGPLPLKYRVRPTCKRMKMSHQRDGLTNAGELESDSGSDKANSPAGGVPSTSSCLPSPSTPVQSPHPQFPHISSTMNGTSNSPSANHQSSFASRPRKSSLNGSSATSSG
binds |  |  | Cbx4 (protein, UniProt O55187 1-551) MELPAVGEHVFAVESIEKKRIRKGRVEYLVKWRGWSPKYNTWEPEENILDPRLLIAFQNRERQEQLMGYRKRGPKPKPLVVQVPTFARRSNVLTGLQDSSADNRAKLELGTQGKGQGHQYELNSKKHHQYQPHSKERSGKPPPPGKSGKYYYQLNSKKHHPYQPDPKMYDLQYQGGHKEAPSPTCPDLGTKSHPPDKWAHGAAAKGYLGAVKPLGGGAGAPGKGSEKGPPNGMTPAPKEAVTGNGIGGKMKIVKNKNKNGRIVIVMSKYMENGMQAVKIKSGEAAEGEARSPSHKKRAAEERHPQGDRTFKKAAGASEEKKAEVPCKRREEEALVSGDAQPQDLGSRKLSPTKEAFGEQPLQLTTKPDLLAWDPARSSHPPAHHHHHHHHHHHHHTVGLNLSHARKRCLSETHGEREPCKKRLTARSISTPTCLGGSPVSEHPANVSPTAASLPQPEVILLDSDLDEPIDLRCVKMRSDAGEPPSTLQVKPEAPAVAAVVAPAPASEKPPAEAQEEPVEPLSEFKPFFGNIIITDVTANCLTVTFKEYVTV
no binding |  |  | Rybp (protein, UniProt Q8CCI5 1-228) MTMGDKKSPTRPKRQAKPAADEGFWDCSVCTFRNSAEAFKCSICDVRKGTSTRKPRINSQLVAQQVAQQYATPPPPKKEKKEKVEKPDKEKPEKDKDISPSVTKKNTNKKTKPKSDILKDPPSEANSIQSANATTKTSETNHTSRPRLKNVDRSTAQQLAVTVGNVTVIITDFKEKTRSSSTSSSTVTSSAGSEQQNQSSSGSESTDKGSSRSSTPKGDMSAVNDESF
no binding |  |  | Mel18 (protein, UniProt P23798 1-342) MHRTTRIKITELNPHLMCALCGGYFIDATTIVECLHSFCKTCIVRYLETNKYCPMCDVQVHKTRPLLSIRSDKTLQDIVYKLVPGLFKDEMKRRRDFYAAYPLTEVPNGSNEDRGEVLEQEKGALGDDEIVSLSIEFYEGVRDREEKKNLTENGDGDKEKTGVRFLRCPAAMTVMHLAKFLRNKMDVPSKYKVEILYEDEPLKEYYTLMDIAYIYPWRRNGPLPLKYRVQPACKRLTLPTVPTPSEGTNTSGASECESVSDKAPSPATLPATSSSLPSPATPSHGSPSSHGPPATHPTSPTPPSTAAGTTTATNGGTSNCLQTPSSTSRGRKMTVNGAPCPP
